Data published in PubChem BioAssay AID1347423 (Functional Genomics Laboratory (NCATS/FGL), 2020).
Among all 52,000 sequences or so, about 210 (0.4%) were called active.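 The calls were made as follows: active = gene whose silencing raises cell survival under the drug, median off-target-corrected z-score across its silencing RNAs 2 or more; inactive = the rest.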 This is one part of the list.

test: Resistance to Poly (ADP-Ribose) Polymerase inhibitor: Gene Identification via Genome-wide siRNA Screen; conditions: mouse BRCA2 R2336H ES cells, olaparib, CellTiter-Glo viability; stronger effect = higher value
Summary of the method: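 Mouse BRCA2 R2336H ES cells were reverse-transfected with siRNA (20 nM final), treated at 48 h with 500 nM olaparib, and read by CellTiter-Glo after 72 h. Scores: MAD-based z per siRNA, median per gene, seed off-target correction.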

Sequence	z-score
AAAAAGGUGUCACCUUUCUTT against Gm1961	inactive: -0.149
CCCGUAUGGAUGUGGUAACTT against 4933425O20Rik	inactive: -2.22
GGAGAGAACUGAUGAAUCCTT against 0610038F07Rik	inactive: 0.46
GGUUAAACUACAACAGUUGTT against 1700095F04Rik	inactive: 1.49
CCGCCGUUCCUUUUGUUUCTT against Sox21	inactive: 0.733
GCGCAGUCAGACCAUAUAUTT against Fbxl5	inactive: -1.2
CCUCUUGGUCGAAUUAUUATT against A630042L21Rik	inactive: 0.377
CGGUAUGUAAAUCUAUCACTT against Kctd4	inactive: -0.136
CCCUGAGAUAGGCAAUGUGTT against 6330404A07Rik	inactive: -1.06
CCUCUUAAAACAAUACCAATT against Olr1	inactive: 0.365
GGAAAACCUAGAAGAUAAUTT against Syt14l	inactive: 0.82
CCGAGUUCGGGUAUCUUGGTT against Grwd1	inactive: -0.802
GGCUUUUUGUGUAUUUGUUTT against Evi5	inactive: -0.659
GGCAUACUUGUACCGCUAUTT against Mmp9	inactive: 0.199
GGUUAUCGCAUUUGGUGGUTT against Olfr1511	inactive: -0.0472
CCACAAAACUAAGACACCUTT against P2ry6	inactive: 0.181
GGAAUACGCAGUGAAAAUCTT against Phkg1	inactive: -0.0338
GCCAACUCAGUUUUGAAUGTT against 4930404J24Rik	inactive: -0.142
GCCAGGAUAUGGAUAUGCATT against 1520401A03Rik	inactive: 1.47
CCAAGGAGACUCAUCAACATT against Crebbp	inactive: 2.08
GCUCAAUUGUGGAGCAGUCTT against Cd5l	inactive: 0.193
GGUAAAACAUUGUUUAGACTT against Crk7	inactive: -0.145
CCUACUUGGGAAAGUUCGCTT against Egr3	inactive: 0.719
CCUAGCAGACUUUAACCAATT against Ptk2	inactive: -0.778
GGUAUCAGAGCUGUGUUCUTT against C530044N13Rik	inactive: -0.83
GGGUAGAUAGAUGUUCAGGTT against LOC434285	inactive: -0.21
GGAUUACCGGCAGCUGGAATT against Dnm1	inactive: 2.09
GCUAGAGAAAAAACAGCCATT against Csf2rb1	inactive: 0.652
